Experimental data published in US20110059504A1.
Results are given in words; binding and its absence hold for the method and conditions named. Some entries that bind do so weakly or less than the wild type.

The chains behind the UniProt entries cited, without tags or fusion partners. Residues count along the entry.
UniProt P01138, residues 122-241: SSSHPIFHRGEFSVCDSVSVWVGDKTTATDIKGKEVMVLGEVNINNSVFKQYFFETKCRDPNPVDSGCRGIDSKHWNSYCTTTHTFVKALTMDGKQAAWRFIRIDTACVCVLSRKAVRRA

T1: human myostatin (human) (UniProt O14793)
T1 sequence (biotinylated in selections and radioactive assays (site not stated), looked up): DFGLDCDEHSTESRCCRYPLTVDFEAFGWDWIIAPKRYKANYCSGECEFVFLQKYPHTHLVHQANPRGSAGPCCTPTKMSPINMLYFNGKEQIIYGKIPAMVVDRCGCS


target: human β-NGF (human) (UniProt P01138); assay: radioactive equilibrium binding assay: 35S-labelled in vitro protein, biotinylated β-NGF 0-50 nM, capture on M-280 beads

binding	Binder
binds	61363-H1 (V15A) (designed binder) MTIPEIIIKVRGTQAVGSDMTVIVEFTNPLKETLYNVWVHLDGPGVTRPMKKMFWEIRTNHPVQWEEVVRPWVSGHRKLIASMSSNSRDHVYGELDVQIQRRDYKDDDDK
binds	61362-C6 (designed binder) MTIPEIIIKVRGTQVVGSDMTVIVEFTNPLNEPLLFVWVHLDGPGVTRPMKKMFRIISPHATVQWEEVVRPWVSGHRKLIASMSIGFQAHVYGELDVQIQRRDYKDDDDK
binds	61362-F2 (designed binder) MTIPEIIIKVRGTQVVGSDMTVIVEFINTSNETLPSVWVHLDGPGVTRPMKKMFPEIPPNSSVQWEAWVSGHRKLIASMIRDSSRHVYGELDVQIQRRDYKDDDDK
binds	61363-C12 (G45E) (designed binder) MTIPEIIIKVRGTQVVGSDMTVIVEFTNPLEENLYNVWVHLDGPEVTRPMKKMFYQISTNIPVQWEEVVRPWVSGHRKLIASMGAHTKDHVYGELDVQIQRRDYKDDDDK

target: T1, human myostatin (human); assay: radioactive equilibrium binding assay: 35S-labelled in vitro protein, biotinylated myostatin 0-100 nM, capture on M-280 beads [panel Group M2-A50]

binding	Binder
binds	39908-H10 (designed binder) MTIPEIIIKVRGTQVVGSDMTVIVEFTNPFKETLRSVWVHLDGPGVTRPMKKMFREIPPKTTVQWEEVVRPWVSGHRKLIASMPSLLHLHVYGELDVQIQRRDYKDDDDK
binds	39908-G12 (designed binder) MTIPEIIIKVRGTQVVGSDMTVIVEFTNPFKETLRSVWVHLDGPGVTRPMKKMFSEIRPNSTVQWEEVVRPWVSGHRKLIASMPSLLHLHVYGELDVQIQRRDYKDDDDK
binds	39908-G4 (designed binder) MTIPEIIIKVRGTQVVGSDMTVIVEFSNPFKETLRNVWVHLDGPGVTRPMKKMFSEIRPNSTVQWEEVVRPWVSGHRKLIASMPSLLHLHVYGELDVQIQRRDYKDDDDK
binds	39633-D2 (designed binder) MTIPEIIIKVRGTQVVGSDMTVIVEFTNLMKETLRNVWVHLDGPGVTRPMKKMFSEIRPNSTVQWEEVVRPWVSGHRKLIASMPSLLHLHVYGELDVQIQRRDYKDDDDK

target: T1, human myostatin (human); assay: radioactive equilibrium binding, competitor at 500 nM

binding	Binder
binds	M29, E. coli-produced (designed binder) MTIPEIIIKVRGTQVVGSDMTVIVEFTNPFKETLRSVWVHLDGPGVTRPMKKMFREIPPKTTVQWEEVVRPWVSGHRKLIARCSLSPWHVYGELDVQIQRRHHHHHH
binds	M1-1, E. coli-produced (designed binder) MTIPEIIIKVRGTQVVGSDMTVIVEFTNPLKETLRNVWVHLDGPGVTRPMKKMFPAIPMNHKVQWEEVVRPWVSGHRKLIASMPQLFHIHVYGELDVQIQRRHHHHHH
binds	M17, E. coli-produced (designed binder) MTIPEIIIKVRGTQVVGSDMTVIVEFTNPFKETLRSVWVHLDGPGVTRPMKKMFREIPPKTTVQWEEVVRPWVSGHRKLIASMRTQYLIHLYGELDVQIQRRHHHHHH

target: T1, human myostatin (human); assay: competition in radioactive equilibrium binding assay: labelled in vitro binder 0.1 pmol, myostatin 2 pmol, E. coli-produced protein 50 pmol

binding	Binder
binds	M29, E. coli-produced (designed binder) MTIPEIIIKVRGTQVVGSDMTVIVEFTNPFKETLRSVWVHLDGPGVTRPMKKMFREIPPKTTVQWEEVVRPWVSGHRKLIARCSLSPWHVYGELDVQIQRRHHHHHH
binds	M1-1, E. coli-produced (designed binder) MTIPEIIIKVRGTQVVGSDMTVIVEFTNPLKETLRNVWVHLDGPGVTRPMKKMFPAIPMNHKVQWEEVVRPWVSGHRKLIASMPQLFHIHVYGELDVQIQRRHHHHHH
binds	M17, E. coli-produced (designed binder) MTIPEIIIKVRGTQVVGSDMTVIVEFTNPFKETLRSVWVHLDGPGVTRPMKKMFREIPPKTTVQWEEVVRPWVSGHRKLIASMRTQYLIHLYGELDVQIQRRHHHHHH

target: T1, human myostatin (human); assay: radioactive equilibrium binding assay: 35S-labelled in vitro protein, biotinylated myostatin 0-100 nM, capture on M-280 beads [panel Groups M1,2,3-A]

Binder	binding
39885-A1 (designed binder) MTIPEIIIKVRGTQVVGSDMTVIVEFTNPLKETLRNVWVHLDGPGVTRPMKKMFPAIPMNHKVQWEEVVRPWVSGHRKLIASMPQLFHIHVYGELDVQIQRRDYKDDDDK	binds
39885-C11 (designed binder) MTIPEIIIKVRGTQVVGSDMTVIVEFTNPLKETLRNVWVHLDGPGVTRPMKKMFPAIPMNHKVQWEEVVRPWVSGHRKLIASMINYFYKHVYGELDVQIQRRDYKDDDDK	binds

Results, then the binder that gave them:

binding	Binder
binds	39973-F10 (designed binder) MTIPEIIIKVRGTQVVGSDMTVIVEFTNPLKETLRNVWVHLDGPGVTRPMKKMFATIPPYLPVQWEEVVRPWVSGHRKLIASMPQLIHLHVYGELDVQIQRRDYKDDDDK
binds	39973-C10 (designed binder) MTIPEIIIKVRGTQVVGSDMTVIVEFTNPLKETLRNVWVHLDGPGVTRPMKKMFPTISRFKRVQWEEVVRPWVSGHRKLIASMPQLQHLHVYGELDVQIQRRDYKDDDDK

target: T1, human myostatin (human); assay: radioactive equilibrium binding assay: 35S-labelled in vitro protein, biotinylated myostatin 0-100 nM, capture on M-280 beads [panel Group M3-A50]

Binder	binding
39633-D6 (designed binder) MTIPEIIIKVRGTQVVGSDMTVIVEFTNPFKETLRNVWVHLDGPGVTRPMKKMFCEIRPNSIVQWEEVVRPWVSGHRKLIARCSLSPWHVYGELDVQIQRRDYKDDDDK	binds
39633-G6 (designed binder) MTIPEIIIKVRGTQVVGSDMTVIVEFTNPFKETLRSVWVHLDGPGVTRPMKKMFREIPPKTTVQWEEVVRPWVSGHRKLIASMTLRPWHVYGELDVQIQRRDYKDDDDK	binds

Further lines, results first:

binding	Binder
binds	39908-E1 (designed binder) MTIPEIIIKVRGTQVVGSDMTVIVEFTNLWKEALRNVWMHLDGPGVTRPMKKMFREIATMSTVQWEEVVRPWVSGHRKLIASMTLRPWHVYGELDVQIQRRDYKDDDDK
binds	39908-B2 (designed binder) MTIPEIIIKVRGTQVVGSDMTVIVEFTNPFKETLRSVWVHLDGPGVTRPMKKMFREIPPKTTVQWEEVVRPWVSGHRKLIARCQLLPWHVYGELDVQIQRRDYKDDDDK
binds	39908-D2 (designed binder) MTIPEIIIKVRGTQVVGSDMTVIVEFTNPFKETLRSVWVHLDGPGVTRPMKKMFREIPPKTTVQWEEVVRPWVSGHRKLIARCSLSPWHVYGELDVQIQRRDYKDDDDK
binds	39908-E5 (designed binder) MTIPEIIIKVRGTQVVGSDMTVIVEFSNPFKETLRNVWVHLDGPGVTRPMKKMFSEIRPNSTVQWEEVVRPWVSGHRKLIARCSLSPWHVYGELDVQIQRRDYKDDDDK

target: T1, human myostatin (human); assay: radioactive equilibrium binding assay: 35S-labelled in vitro protein, biotinylated myostatin 0-100 nM, capture on M-280 beads [panel Group M1-A50]

binding	Binder
binds	39633-G5 (designed binder) MTIPEIIIKVRGTQVVGSDMTVIVEFTNPFKETLRSVWVHLDGPGVTRPMKKMFSEIRPNSTVQWEEVVRPWVSGHRKLIASMRTQYLIHLYGELDVQIQRRDYKDDDDK
binds	39633-B3 (designed binder) MTIPEIIIKVRGTQVVGSDMTVIVEFTNPLSQTLSAVWVHLDGPGVTRPMKKMFREIPPKTTVQWEEVVRPWVSGHRKLIASMRTQYLIHLYGELDVQIQRRDYKDDDDK
binds	39633-C1 (designed binder) MTIPEIIIKVRGTQVVGSDMTVIVEFTNPFKETLRSVWVHLDGPGVTRPMKKMFREIPPKTTVQWEEVVRPWVSGHRKLIASMRTQYLIHLYGELDVQIQRRDYKDDDDK
binds	39633-G1 (designed binder) MTIPEIIIKVRGTQVVGSDMTVIVEFSNPFKETLRNVWVHLDGPGVTRPMKKMFREIPPKTTVQWEEVVRPWVSGHRKLIASMRTQYLIHLYGELDVQIQRRDYKDDDDK
